Reference: paper PMC6747400, “Mismatch Recognition by Saccharomyces cerevisiae Msh2-Msh6: Role of Structure and Dynamics”

System: Msh2 + Msh6
Experiment: EMSA
Details: apparent Kd; EMSA: 20 mM Tris-Cl pH 7.5, 100 mM NaCl, 5 mM MgCl2, 2% ficoll, 4 C, 10 nM DNA; recombinant protein; letters put together from the description

## TATGCAGTCACTATGAATCAACTACTTAGATGGT (double strand) [G:C unlabeled]
  Kd: 0.066 µM

## TATGCAGTCACTATGAATCAACTACTTAGATGGT / ACCATCTAAGTAGTTGATTAATAGTGACTGCATA [G:A unlabeled]
  Kd: 0.045 µM

## TATGCAGTCACTATGAATCAACTACTTAGATGGT / ACCATCTAAGTAGTTGATTCTAGTGACTGCATA [+T unlabeled]
  Kd: 0.033 µM

## TATGCAGTCACTATGAATCAACTACTTAGATGGT / ACCATCTAAGTAGTTGATTTATAGTGACTGCATA [G:T unlabeled]
  Kd: 0.035 µM

For at least one entry, the source does not settle the construct or the ends of the probe.
